In PubChem BioAssay AID588590 (National Center for Advancing Translational Sciences (NCATS), 2011):
Among all 390,000 compounds or so, about 4,000 (1%) were called active. The inconclusive results got no clear call from the source; some entries with a clear call stand among them for comparison. Calls come from the whole dose curve; as a rule, active = well fitted inhibition curve with a large enough effect; inconclusive = small, poorly fitted or top-dose-only effect, or another doubt; inactive = no such curve, though single readings can be large or run the other way. Potencies beside an inconclusive call are fits to weak or partial responses and may not hold up.

The chains behind the UniProt entries cited, without tags or fusion partners. Where a name states a change or a piece, a line headed by the entry shows the natural chain unless it says otherwise.
UniProt Q9UNA4: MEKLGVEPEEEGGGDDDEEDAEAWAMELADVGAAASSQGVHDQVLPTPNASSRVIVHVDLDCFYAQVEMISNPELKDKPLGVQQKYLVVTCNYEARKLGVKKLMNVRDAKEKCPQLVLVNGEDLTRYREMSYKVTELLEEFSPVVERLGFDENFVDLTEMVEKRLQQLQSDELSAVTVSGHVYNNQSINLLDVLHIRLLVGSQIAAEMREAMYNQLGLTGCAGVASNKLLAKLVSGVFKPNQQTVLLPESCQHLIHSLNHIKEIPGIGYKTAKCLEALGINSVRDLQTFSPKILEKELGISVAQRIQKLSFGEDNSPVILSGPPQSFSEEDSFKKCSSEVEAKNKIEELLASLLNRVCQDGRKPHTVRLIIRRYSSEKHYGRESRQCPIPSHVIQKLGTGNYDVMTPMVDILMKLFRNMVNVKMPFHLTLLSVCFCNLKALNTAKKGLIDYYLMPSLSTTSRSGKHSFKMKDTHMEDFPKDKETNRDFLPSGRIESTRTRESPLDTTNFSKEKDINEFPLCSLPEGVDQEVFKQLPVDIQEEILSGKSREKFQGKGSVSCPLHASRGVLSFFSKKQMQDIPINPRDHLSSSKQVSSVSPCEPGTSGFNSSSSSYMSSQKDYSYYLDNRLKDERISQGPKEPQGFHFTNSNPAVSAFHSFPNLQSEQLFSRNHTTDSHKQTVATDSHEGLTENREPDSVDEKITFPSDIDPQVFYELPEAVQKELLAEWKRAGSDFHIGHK

What follows are compounds tested against DNA polymerase iota (Homo sapiens) (UniProt Q9UNA4) (assay: qHTS for Inhibitors of Polymerase Iota). Conditions: Pol iota fluorescent replication assay, 10 min; series mostly up to 115 µM.
Excerpt: DNA polymerases, such as Pol iota, are specifically involved in DNA repair. Pol iota specifically plays an important role in translesion synthesis, where the normal high-fidelity DNA polymerases cannot proceed and DNA synthesis stalls. […] Thus, while pol eta's (and most likely iota's) normal function is to protect humans against the deleterious consequences of DNA damage, under certain conditions they can have deleterious effects on human health. As a consequence, we propose to utilize a high throughput replication assay to identify small molecule inhibitors of pol iota.
In a collaboration between the National Institute of Child Health & Human Development (NICHD) and NIH Chemical Genomics Center, a high-throughput, fluorescent screen was developed to screen the NIH Molecular Libraries Small Molecule Repository (MLSMR). This screen is used to identify inhibitors of pol iota.
NIH Chemical Genomics Center [NCGC]
NIH Molecular Libraries Probe Centers Network [MLPCN]
Assay Submitter (PI): Roger Woodgate, NICHD)
Three microliters of reagents (buffer in column 3 and 4 as negative control and 10 nM Pol iota in columns 1, 2, and 5-48) will be dispensed into 1,536-well black solid-bottomed plate. Compounds (23 nL) will be transferred via Kalypsys pin tool equipped with 1536-pin array. The plates will then be incubated for 15 min at room temperature, and 1 µL substrate (50 nM final concentration) will be added to start the reaction and kinetically read twice at 0 min and 10 min on the Viewlux reader.
Potency is the fitted concentration of half-maximal effect.

Potency, inactive:
COc1ccc(NC(=O)CNc2ccccc2C(C)=O)cc1S(=O)(=O)N1CCOCC1
COc1cc(OC)c(NC(=O)C(c2ccccc2)N2Cc3ccccc3C2=O)cc1Cl (configuration not stated)
CCOC(=O)c1c(C)[nH]c(C(=O)N(C)Cc2cccc(OC)c2OC)c1C
O=C(Nc1nonc1-c1ccc(Cl)cc1)c1ccccc1F
Cc1cc(C)nc(NS(=O)(=O)c2ccc(NC(=O)c3ccccc3O)cc2)n1
Cc1ccc(C)c(NC(=O)CN2C(=O)C3(SCC(=O)N3c3ccc(C)c(C)c3)c3ccccc32)c1 (configuration not stated)
O=C(Cn1nc(-c2ccccc2)c2cnc3ccccc3c21)Nc1ccccc1
CC1=C(C(=O)Nc2cccnc2)C(c2ccccc2)n2nc(SCc3ccccc3)nc2N1 (configuration not stated)
CC1CCc2nc3ncn(Cc4ccc(Cl)cc4)c(=O)c3cc2C1 (configuration not stated)
COc1cc(Cl)c(C)cc1NC(=O)c1cn(C2CCCC2)c(=O)c2c1c1ccccc1n2C
CCc1cnc2ccccc2c1/C=C/c1ccc(N(C)C)cc1
CCCCCC(=O)Nc1ccc(-c2csc(N)n2)cc1
Cc1cccc(Cn2cnc3c(cnn3C(C)(C)C)c2=O)c1

Potency, active:
O=C(NC1(O)C(=O)c2ccccc2C1=O)c1ccc(C(F)(F)F)cc1 1.78 µM
O=C(COc1ccccc1[N+](=O)[O-])Nc1cccc(S(=O)(=O)NC2=NCCCCC2)c1 79.4 µM
O=C(c1ccccc1)c1ccc(O)c(O)c1O 28.2 µM

Potency, inconclusive:
CCCC(C)NC(=O)c1c2c(nc3ccccc13)CCC2 (configuration not stated) 14.1 µM [inhibitor, full curve, poor fit]
O=C(CSc1ccsc1[N+](=O)[O-])Nc1cc(F)ccc1F 8.91 µM [inhibitor, full curve, poor fit]
O=C(COc1ccccc1)Nc1ccc(-c2ccc(N3CCOCC3)nn2)cc1 28.2 µM [inhibitor, full curve]
Cc1ccc(C)c(NC(=O)C(Sc2nncn2C)c2ccccc2)c1 (configuration not stated) 89.1 µM [inhibitor, single point]
Cc1cccc(NC(=O)CSc2nnc(-c3ccco3)c(-c3ccco3)n2)c1 15.8 µM [inhibitor, full curve, poor fit]
COc1ccc(CCNC(=O)C2(c3cccs3)CCOCC2)cc1 17.8 µM [inhibitor, partial curve, poor fit]
Cc1cccn2c(=O)c3cc(C#N)c(=NC(=O)c4ccco4)n(Cc4ccco4)c3nc12 28.2 µM [inhibitor, full curve]
CCOC(CNC(=O)C(=O)NCC(c1ccco1)N1CCN(c2ccc(OC)cc2)CC1)OCC (configuration not stated) 0.891 µM [inhibitor, partial curve, poor fit]
CCCCSc1cc(=O)n(-c2ccccc2)nc1C(=O)OCC 89.1 µM [inhibitor, partial curve]
CC(C)CN(C(=O)CN1CCN(c2ccccc2O)CC1)c1c(N)n(CC(C)C)c(=O)[nH]c1=O 79.4 µM [inhibitor, partial curve, poor fit]
COc1ccc(Cn2nnnc2C(c2ccccn2)N2CCN(c3ccc(O)cc3)CC2)cc1 (configuration not stated) 79.4 µM [inhibitor, partial curve, poor fit]
Cc1nc(Nc2ccc(Cl)c(Cl)c2)sc1C(=O)Nc1ccccc1 25.1 µM [inhibitor, single point]
CC(Nc1nc(-c2ccc(Cl)cc2)cs1)c1nc2cc(Cl)c(N3CCCCC3)cc2n1CCOCCO (configuration not stated) 39.8 µM [inhibitor, single point]
O=C(COc1ccc([N+](=O)[O-])cc1Cl)Nc1ccc2[nH]c(=O)[nH]c2c1 28.2 µM [inhibitor, partial curve]
COc1ccc(OC)c(Nc2nc(C)nc3c2oc2ccccc23)c1 31.6 µM [inhibitor, partial curve, poor fit]
COc1ccc(OC)c(C(=O)NC(CC(N)=O)c2ccc(N3CCN(c4ccc(F)cc4)CC3)c([N+](=O)[O-])c2)c1 (configuration not stated) 56.2 µM [inhibitor, partial curve, poor fit]
COc1ccc(/C=C2\C(=O)NC(=S)N2C(=O)c2ccc(F)cc2)cc1 35.5 µM [inhibitor, partial curve, poor fit]
CCOc1ccc(OCC(=O)Nc2ccc(S(=O)(=O)Nc3cc(C)nc(C)n3)cc2)cc1 12.6 µM [inhibitor, partial curve]
COc1ccc(-c2nc(CSc3nncn4c3cc3occc34)c(C)o2)cc1 31.6 µM [inhibitor, partial curve, poor fit]
O=C(CSc1nnc(-c2cccnc2)n1Cc1ccco1)c1ccc2ccccc2c1 7.94 µM [inhibitor, full curve, poor fit]
COc1ccc(OC)c(C2C3=C(N=C4SCC(=O)N42)c2ccccc2CC3)c1 (configuration not stated) 10 µM [inhibitor, partial curve, poor fit]
COc1ccc(OCCCC(=O)NC(C)c2ccccc2)cc1 (configuration not stated) 2.82 µM [inhibitor, partial curve, poor fit]
CC(=O)Nc1ccc2c(c1)C(=O)c1ccccc1C2=O 17.8 µM [inhibitor, partial curve, poor fit]
COC(=O)CNC(=O)c1ccc(NS(=O)(=O)c2cc([N+](=O)[O-])ccc2Cl)cc1 20 µM [inhibitor, full curve]
O=C(Cn1cc2c(n1)CCCC2)NCc1ccccn1 5.62 µM [inhibitor, full curve, poor fit]
Cc1cc(C)c2nc(NNC(=O)c3cc(=O)c4ccccc4o3)sc2c1 15.8 µM [inhibitor, full curve, poor fit]

3 compounds already listed, arranged by molar mass, falling:
Potency, inconclusive:
Cc1cccn2c(=O)c3cc(C#N)c(=NC(=O)c4ccco4)n(Cc4ccco4)c3nc12 28.2 µM [inhibitor, full curve]
COc1ccc(-c2nc(CSc3nncn4c3cc3occc34)c(C)o2)cc1 31.6 µM [inhibitor, partial curve, poor fit]
Cc1ccc(C)c(NC(=O)C(Sc2nncn2C)c2ccccc2)c1 (configuration not stated) 89.1 µM [inhibitor, single point]
